Measured values published in patent US20160272645A1, “Heterocyclic Compounds and Methods of Use” (MEDIVATION TECHNOLOGIES, INC., priority 2013, published 2016).
pIC50: −log10 of the molar value. Structures were worked out from names or drawings and are uncertain.

Protein sequences, listed by entry. Tags and fused reporters are not part of them. Lines headed by an entry give the natural chain unless they say otherwise; changes in a name come on top.
UniProt O00329, whole entry: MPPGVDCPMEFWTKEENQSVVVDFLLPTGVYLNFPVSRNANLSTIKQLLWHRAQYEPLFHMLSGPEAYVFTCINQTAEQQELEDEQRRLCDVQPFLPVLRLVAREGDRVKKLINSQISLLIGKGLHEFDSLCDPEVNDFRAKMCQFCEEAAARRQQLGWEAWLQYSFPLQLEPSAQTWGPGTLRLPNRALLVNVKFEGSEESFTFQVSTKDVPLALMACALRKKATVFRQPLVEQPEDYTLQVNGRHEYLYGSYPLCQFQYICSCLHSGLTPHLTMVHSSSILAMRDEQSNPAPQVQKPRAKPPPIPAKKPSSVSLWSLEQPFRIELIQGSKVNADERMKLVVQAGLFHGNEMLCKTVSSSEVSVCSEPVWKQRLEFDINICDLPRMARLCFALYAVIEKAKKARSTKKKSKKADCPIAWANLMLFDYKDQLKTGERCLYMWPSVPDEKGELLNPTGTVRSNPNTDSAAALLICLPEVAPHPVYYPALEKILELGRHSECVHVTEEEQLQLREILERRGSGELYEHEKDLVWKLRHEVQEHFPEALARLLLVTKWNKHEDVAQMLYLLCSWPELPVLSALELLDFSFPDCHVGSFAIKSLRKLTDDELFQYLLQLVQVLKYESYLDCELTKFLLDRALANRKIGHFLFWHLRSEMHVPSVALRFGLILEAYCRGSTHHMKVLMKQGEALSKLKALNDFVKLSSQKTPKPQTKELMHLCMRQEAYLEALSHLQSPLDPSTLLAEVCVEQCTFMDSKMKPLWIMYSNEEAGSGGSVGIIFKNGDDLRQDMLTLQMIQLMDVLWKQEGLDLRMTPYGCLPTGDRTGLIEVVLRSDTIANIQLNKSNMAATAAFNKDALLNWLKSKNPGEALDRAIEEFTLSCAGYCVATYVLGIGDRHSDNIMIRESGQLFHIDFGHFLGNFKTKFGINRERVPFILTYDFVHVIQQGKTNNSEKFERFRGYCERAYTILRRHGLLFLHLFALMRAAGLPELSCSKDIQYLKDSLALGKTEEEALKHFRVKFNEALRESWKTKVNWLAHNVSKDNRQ
UniProt Q06187, whole entry: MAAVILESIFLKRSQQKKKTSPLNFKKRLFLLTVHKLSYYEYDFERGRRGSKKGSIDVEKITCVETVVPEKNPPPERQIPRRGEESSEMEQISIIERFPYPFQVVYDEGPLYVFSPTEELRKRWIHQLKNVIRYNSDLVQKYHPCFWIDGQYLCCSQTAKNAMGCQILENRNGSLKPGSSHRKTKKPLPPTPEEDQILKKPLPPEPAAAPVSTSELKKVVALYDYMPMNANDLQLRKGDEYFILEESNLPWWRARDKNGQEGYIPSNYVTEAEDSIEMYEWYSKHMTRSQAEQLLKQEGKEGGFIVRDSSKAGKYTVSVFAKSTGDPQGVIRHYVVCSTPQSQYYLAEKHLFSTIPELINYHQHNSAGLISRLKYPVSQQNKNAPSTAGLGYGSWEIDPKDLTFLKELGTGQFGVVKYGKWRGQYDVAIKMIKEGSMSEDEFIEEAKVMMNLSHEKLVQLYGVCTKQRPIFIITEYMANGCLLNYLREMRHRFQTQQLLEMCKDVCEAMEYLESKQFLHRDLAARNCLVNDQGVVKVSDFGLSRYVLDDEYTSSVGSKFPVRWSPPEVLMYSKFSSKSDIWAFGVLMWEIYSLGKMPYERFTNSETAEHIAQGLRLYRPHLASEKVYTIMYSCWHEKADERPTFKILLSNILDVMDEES
UniProt P27986, whole entry partner: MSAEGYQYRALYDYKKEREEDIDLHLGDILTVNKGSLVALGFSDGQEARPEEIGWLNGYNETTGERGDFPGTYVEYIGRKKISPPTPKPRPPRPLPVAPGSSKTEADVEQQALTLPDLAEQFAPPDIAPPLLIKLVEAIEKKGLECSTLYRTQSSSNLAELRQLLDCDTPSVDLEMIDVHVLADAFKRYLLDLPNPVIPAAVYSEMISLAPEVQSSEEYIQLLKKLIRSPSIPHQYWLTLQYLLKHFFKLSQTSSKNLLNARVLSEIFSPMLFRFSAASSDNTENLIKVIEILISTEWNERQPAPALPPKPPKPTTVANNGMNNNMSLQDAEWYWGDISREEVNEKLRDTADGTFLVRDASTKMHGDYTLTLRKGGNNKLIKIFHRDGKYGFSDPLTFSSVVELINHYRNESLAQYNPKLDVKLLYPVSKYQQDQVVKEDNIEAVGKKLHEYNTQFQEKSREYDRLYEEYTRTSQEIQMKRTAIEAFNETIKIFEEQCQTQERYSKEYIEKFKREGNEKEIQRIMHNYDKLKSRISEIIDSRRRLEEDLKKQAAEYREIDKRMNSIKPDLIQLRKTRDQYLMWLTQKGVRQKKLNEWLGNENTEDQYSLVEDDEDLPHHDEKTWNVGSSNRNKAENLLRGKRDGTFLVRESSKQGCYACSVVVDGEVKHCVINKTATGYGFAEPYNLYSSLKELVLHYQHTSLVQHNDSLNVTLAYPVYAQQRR

What was measured:
[1] = system: CD69+B220+ cells (mouse spleen cells); experiment: B cell activation assay (IgD-stimulated CD69 on B220+ spleen cells, FACS); conditions: 100 nM test compound, 30 min, then IgD 3 μg/mL 4 h, tested form: TFA salt
Description: 1 Female mouse approximately 2 months old was euthanized with CO2 and the spleen removed. The tissue was homogenized with a polished glass microscope slide. The cells were collected in 5 mL complete medium (RPMI+10% FBS+pen/strep), placed in a 15 mL falcon tube and centrifuged at 500×g for 5 min. The supernatant was discarded and the pellet was resuspended in 3 mL of ACK lysis buffer (NH4Cl 0.17M, KHCO3 10 mM, EDTA-Na2 0.1 mM, pH 7.2), incubated at 37° C. for 5 min. 2 mL complete medium was added and the mixture centrifuged at 500×g for 5 min. The supernatant was discarded and the pellet resuspended in 1 mL complete medium. The mixture was passed through a […] cell strainer and collect in 50 mL falcon tube. Enough medium was added to have a total of 10 mL. The cells were counted and seeded in 24 or 48-well plate in 1 mL complete medium at 10^6 cells/mL. The plate was placed in a 37° C. incubator for 15 min. The cells were treated for 30 min at 37° C. with 100 nM test compound dissolved in 100% DMSO. 3 μL IgD (Accurate chemical and scientific corp.) was added at a final concentration of 3 μg/mL and the mixture incubated at 37° C. for 4 h. […] The samples were run in the FACS Canto II cytometer and quantified by the number of CD69+B220+ cells as a percentage of the total number of B220+ alive cells.

PI3Kδ = PI3Kδ (Homo sapiens, UniProt O00329); experiment: PI3Kδ kinase profiling, HTRF PIP3 displacement assay (Reaction Biology); conditions: read-out: PI3Kδ IC50; 10 dose IC50; ATP 10 μM; tested form: TFA salt
Excerpt: (§1) Compounds of the invention were profiled in a 10 dose IC50 panel against BTK and PI3Kδ, both provided by Reaction Biology Corporation.
PI3Kδ assay: The PIP3 product is detected by displacement of biotin-PIP3 from an energy transfer complex consisting of Europium labeled anti-GST monoclonal antibody, a GST-tagged pleckstrin homology (PH) domain, biotinylated PIP3 and Streptavidin-Allophycocyanin (APC). Excitation of Europium in the complex results in an energy transfer to the APC and a fluorescent emission at 665 nm. The PIP3 product formed by PI3-Kinase (h) activity displaces biotin-PIP3 from the complex resulting in a loss of energy transfer and thus a decrease in signal. This is a 3-step reaction: First, the kinase reaction with PIP2 substrate is carried out in the presence of ATP (10 μM), and the reaction is quenched with stop Solution, and then finally detect by adding Detection Mixture followed by incubation (10 min). Reaction procedure: 1) Prepare substrate in freshly prepared Reaction Buffer. 2) Deliver kinase into the substrate solution and gently mix. 3) Deliver compounds in 100% DMSO (1 μM) into the kinase reaction mixture by Acoustic technology (Echo550; nanoliter range), incubate for 10 min at RT. 4) Deliver ATP into the reaction mixture to initiate the reaction. 5) Incubate for 30 min at 30° C. 6) Quench the reaction with Stop Solution. […]

BTK = BTK (Homo sapiens, UniProt Q06187); experiment: BTK kinase profiling, HotSpot radiometric assay (Reaction Biology); conditions: read-out: BTK IC50; 10 dose IC50; ATP 10 μM; tested form: TFA salt
Description: as §1
BTK assay: In vitro profiling protein kinases was performed using the “HotSpot” assay platform. Briefly, specific kinase/substrate pairs along with required cofactors were prepared in reaction buffer. Compounds were prepared as 10 mM stock solutions in DMSO. Compounds were delivered into the reaction, followed 15-20 minutes later by addition of a mixture of ATP (Sigma, St. Louis Mo.) and ^33P ATP (Perkin Elmer, Waltham Mass.) to a final concentration of 10 μM. Reactions were carried out at RT for 120 min, followed by spotting of the reactions onto P81 ion exchange filter paper (Whatman Inc., Piscataway, N.J.). Unbound phosphate was removed by extensive washing of filters in 0.75% Phosphoric acid. […] ICso values and curve fits were obtained using Prism (GraphPad Software). Buffer Conditions: 20 mM Hepes (pH 7.5), 10 mM MgCl2, 1 mM EGTA, 0.02% Brij35, 0.02 mg/mL BSA, 0.1 mM Na3VO4, 2 mM DTT, 1% DMSO.

In the case of `Nc1ncnc2c1c(-c1cc(O)cc(F)c1)nn2CCNC(=O)c1ccc(F)cc1Cl`, the “CD69 @ 100 nM (% Inh)” value [1] was 12.77 ± 6.00 (n = 6) % Inh, the pIC50 (PI3Kδ) was 7.64 and the pIC50 (BTK) was 5.32.
